These are yes or no findings as the source states them, for the method shown. Some results given as binding are weak or reduced against the parent protein; the word gives no strength. For part of these data: Sequences can lack the tags named with a protein. One block for each binder: values may come before it.
Tests used:
[1] = biological target: T1, vascular endothelial growth factor (UniProt P15692-4 27-191, limits assumed, biotin label (Example 5), site not stated); experiment: ECL (BioVeris) competition, labeled monoclonal antibody against VEGF as competitor
T1 construct: also called VEGF; VegF

Protein sequences, listed by entry. Tags and fused reporters are not part of them. Lines headed by an entry give the natural chain unless they say otherwise; changes in a name come on top. Chains listed by the source or under a name are the forms on record and can include a tag or linker. Residues count along the entry.
vascular endothelial growth factor (P15692-4, form named): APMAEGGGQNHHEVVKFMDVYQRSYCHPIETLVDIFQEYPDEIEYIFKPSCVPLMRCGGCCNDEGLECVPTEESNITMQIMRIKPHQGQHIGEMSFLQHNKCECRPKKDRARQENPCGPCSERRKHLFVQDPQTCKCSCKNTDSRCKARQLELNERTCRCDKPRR
UniProt P01375, residues 77-233: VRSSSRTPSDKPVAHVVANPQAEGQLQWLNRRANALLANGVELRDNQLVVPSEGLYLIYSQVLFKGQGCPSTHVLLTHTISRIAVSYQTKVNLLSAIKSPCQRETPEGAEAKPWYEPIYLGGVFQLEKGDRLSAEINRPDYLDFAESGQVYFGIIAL
UniProt P01137, residues 279-390: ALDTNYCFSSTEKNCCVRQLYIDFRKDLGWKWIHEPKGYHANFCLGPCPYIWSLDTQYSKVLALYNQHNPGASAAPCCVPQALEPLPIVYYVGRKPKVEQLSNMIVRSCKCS

Tumor necrosis factor α = biological target: T2, Tumor necrosis factor α (UniProt P01375 77-233); experiment: sentence summing up the BioVeris competition data of Table 7
T2 construct: also called TNFα; TNF

[2] = biological target: T1, vascular endothelial growth factor; experiment: as above
[3] = biological target: T1, vascular endothelial growth factor; experiment: BioVeris ECL competition, labeled Anti-VegF antibody as competitor
[4] = biological target: T1, vascular endothelial growth factor; experiment: BioVeris ECL competition, monoclonal antibody as competitor
[5] = biological target: T1, vascular endothelial growth factor; experiment: ECL (BioVeris) competition, labeled monoclonal antibody against VEGF as competitor; this molecule is the weaker binder
[6] = biological target: T1, vascular endothelial growth factor; experiment: sentence summing up the BioVeris competition data
[7] = biological target: T1, vascular endothelial growth factor; experiment: sentence summing up the BioVeris competition data; no row for this molecule in Table 7
[8] = biological target: T3, Transforming growth factor β1 (UniProt P01137 279-390); experiment: sentence summing up the BioVeris competition data of Table 7
T3 construct: also called TGFβ1; TGFβ

[9] = biological target: T4, fibroblast growth factor 5 (UniProt P12034 21-268, limits assumed); experiment: as above
T4 construct: also called FGF-5; FGF5
T4 sequence (looked up): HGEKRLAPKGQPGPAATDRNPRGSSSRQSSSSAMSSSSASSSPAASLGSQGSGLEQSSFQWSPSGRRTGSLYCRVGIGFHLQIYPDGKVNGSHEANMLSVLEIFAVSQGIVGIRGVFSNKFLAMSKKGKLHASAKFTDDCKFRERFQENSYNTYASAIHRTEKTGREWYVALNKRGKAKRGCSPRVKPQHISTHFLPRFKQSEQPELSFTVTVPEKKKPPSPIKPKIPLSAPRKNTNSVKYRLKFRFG

B1: BBIt-AV (designed binder)
chain: DDESSKPCCDQCACTKSNPPQCRCSDMRLNSCHSACKSCACYNLYGWTCFCVDITDFCYEPCKPSE
notes: BBI-AV without its 5 C-terminal amino acids; also called truncated BBI-AV; unmodified BBIt-AV
binding [1]: binds

B2: BBIt-TNFα-T1-A13I-S25R-M27A-L29P-S31A-F50K-V52T (designed binder)
chain: DPDDESSKPCCDQCICTKSNPPQCRCRDARPNACHSACKSCACRYWQDIPCKCTDITDFCYEPCKPSE
notes: also called BBIt-TNF-T1
binding (Tumor necrosis factor α): binds

B3: BBIt-TNFα-T2-A13I-S25R-M27A-L29P-S31A-F50K-V52T (designed binder)
chain: DPDDESSKPCCDQCICTKSNPPQCRCRDARPNACHSACKSCACAPEPILACKCTDITDFCYEPCKPSE
notes: also called BBIt-TNF-T2
binding (Tumor necrosis factor α): binds

B4: BBIt-VEGF-V5-A13I-S25R-M27A-L29P-S31A-F50K-V52T (designed binder)
chain: DPDDESSKPCCDQCICTKSNPPQCRCRDARPNACHSACKSCACKPSSASSCKCTDITDFCYEPCKPSE
notes: also called BBIt-AV-V5
binding [2]: binds

B5: BBIt-VEGF-V1-A13I-S25R-M27A-L29P-S31A-F50K-V52T (designed binder)
chain: DPDDESSKPCCDQCICTKSNPPQCRCRDARPNACHSACKSCACSKHSQITCKCTDITDFCYEPCKPSE
notes: also called BBIt-AV-V1
binding [2]: binds

B10: 1BBIck81 (designed binder)
chain: DDESSKPCCDQCACYNLYGWTCRCSDMRLNSCHSACKSCICALSYPAQCFCVDITDFCYEPCKPSEDDKEN
binding [3]: binds

B12: 2BBIck81 (designed binder)
chain: DDESSKPCCDQCACTKSNPPQCRCSDMRLNSCHSACKSCACYNLYGWTCFCVDITDFCYEPCKPSEDDKEN
binding [3]: binds | binding [4]: binds | binding [5]: binds

B16: BBIt-AV-A13I-L29P-A40K-F50T-V52A (designed binder)
chain: DPDDESSKPCCDQCICTKSNPPQCRCSDMRPNSCHSACKSCKCYNLYGWTCTCADITDFCYEPCKPSE
notes: also called TA5; quintuple variant
binding [2]: binds

B20: BBIt-AV-A13I-S25K-M27A-L29R-S31E-A40K-F50Q-V52Q (designed binder)
chain: DPDDESSKPCCDQCICTKSNPPQCRCKDARRNECHSACKSCKCYNLYGWTCQCQDITDFCYEPCKPSE
notes: the entry carries an N-terminal DP; also called QQ8
binding [2]: binds

B21: BBIt-AV-A13I-S25R-M27A-L29P-S31A-A40H-F50K-V52T (designed binder)
chain: DPDDESSKPCCDQCICTKSNPPQCRCRDARPNACHSACKSCHCYNLYGWTCKCTDITDFCYEPCKPSE
notes: the entry carries an N-terminal DP; also called KT8
binding [2]: binds

B22: BBIt-AV-A13I-S25K-M27A-L29R-S31A-A40H-F50R-V52L (designed binder)
chain: DPDDESSKPCCDQCICTKSNPPQCRCKDARRNACHSACKSCHCYNLYGWTCRCLDITDFCYEPCKPSE
notes: the entry carries an N-terminal DP; also called RL8
binding [2]: binds

B23: BBIt-AV-A13I-A40K-F50T-V52A (designed binder)
chain: DPDDESSKPCCDQCICTKSNPPQCRCSDMRLNSCHSACKSCKCYNLYGWTCTCADITDFCYEPCKPSE
notes: the entry as printed carries an N-terminal DP from the linker
binding [2]: binds

Next, values leading:

binding [2]: binds
B6: BBIt-VEGF-V4-A13I-S25R-M27A-L29P-S31A-F50K-V52T (designed binder)
chain: DPDDESSKPCCDQCICTKSNPPQCRCRDARPNACHSACKSCACKHSAKAECKCTDITDFCYEPCKPSE
notes: also called BBIt-AV-V4

binding [2]: binds
B7: BBIt-VEGF-V6-A13I-S25R-M27A-L29P-S31A-F50K-V52T (designed binder)
chain: DPDDESSKPCCDQCICTKSNPPQCRCRDARPNACHSACKSCACPVTKRVHCKCTDITDFCYEPCKPSE
notes: also called BBIt-AV-V6

binding [2]: binds
B8: BBIt-VEGF-V3-A13I-S25R-M27A-L29P-S31A-F50K-V52T (designed binder)
chain: DPDDESSKPCCDQCICTKSNPPQCRCRDARPNACHSACKSCACRPTGHSLCKCTDITDFCYEPCKPSE
notes: also called BBIt-AV-V3

binding [2]: binds
B9: BBIt-VEGF-V2-A13I-S25R-M27A-L29P-S31A-F50K-V52T (designed binder)
chain: DPDDESSKPCCDQCICTKSNPPQCRCRDARPNACHSACKSCACKTNPSGSCKCTDITDFCYEPCKPSE
notes: also called BBIt-AV-V2

binding [2]: binds
B11: BBIt-VEGKD-A13I-S25K-L29P-V52K (designed binder)
chain: DPDDESSKPCCDQCICTKSNPPQCRCKDMRPNSCHSACKSCICKYDLYWWCFCKDITDFCYEPCKPSE
notes: also called VegKD-Q

binding [6]: binds
B13: BBdb-AV (designed binder)
chain: DPSESSKPCCDQCACTKSIPPQCRCTDVRLNSCHSACSSCACYNLYGWTCVCVDMKDFCYEPCK
notes: also called BBIdb-AV

binding [7]: binds
B14: BBsb3-AV (designed binder)
chain: DPDDEYSKPCCDLCMCTRSMPPQCSCEDIRLNSCHSDCKSCACYNLYGWTCRCLDTNDFCYKPCKSRDD

binding [6]: binds
B15: BBtc-AV (designed binder)
chain: DPSSKWEACCDRCACTKSIPPQCHCADIRLNSCHSACESCACYNLYGWTCRCFDITDFCYKPCSG
notes: also called BBItc-AV

binding [8]: binds
B17: MM021W-Q-BBIt-TGFβ1 (designed binder)
chain: DPDDESSKPCCDQCICTKSNPPQCRCSDMRPNSCHSACKSCACKHNVDWLCTCADITDFCYEPCKPSE
notes: also called MM0212-Q-BBIt-TGF; BBIt-MM021W-Q-A13I-L29P-F50T-V52A

binding [9]: binds
B18: MM007-Q-BBIt-FGF-5 (designed binder)
chain: DPDDESSKPCCDQCICTKSNPPQCRCSDMRPNSCHSACKSCACRTQPYPLCTCADITDFCYEPCKPSE
notes: also called BBIt-MM007-Q-A13I-L29P-F50T-V52A

binding [9]: binds
B19: FGFps2-Q-BBIt-FGF-5 (designed binder)
chain: DPDDESSKPCCDQCICTKSNPPQCRCSDMRPNSCHSACKSCACTWIDSTPCTCADITDFCYEPCKPSE
notes: also called BBIt-FGFps2-Q-A13I-L29P-F50T-V52A

binding [8]: binds
B24: PEN3-Q-BBIt-TGFβ1 (designed binder)
chain: DPDDESSKPCCDQCICTKSNPPQCRCSDMRPNSCHSACKSCACPENINVLPCTCADITDFCYEPCKPSE
notes: also called BBIt-PEN3-Q-A13I-L29P-F50T-V52A

binding [3]: binds
B25: CK37281 peptide (peptide)
peptide: ACYNLYGWTC

Reference: patent publication US20100093028A1 (DANISCO US, published 2010)
